Some of the results follow.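 The calls were made as follows: active = dose-dependent thermal stabilisation significant by F-test of dose-response against flat model at 10% FDR; inactive = not significant.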
Compound: Nc1nc2c(ncn2[C@@H]2O[C@H](COP(=O)(O)OP(=O)(O)OP(=O)(O)O)[C@@H](O)[C@H]2O)c(=O)[nH]1
Assay: dose-dependent thermal stabilisation call (2D-TPP, DLPTP, 10% FDR) (binary (1 = stabilised)); higher = stabilised by the compound
Details: system: Jurkat gel-filtered lysate; concentration range 1-500 µM

The chains behind the UniProt entries cited, without tags or fusion partners. Where a name states a change or a piece, a line headed by the entry shows the natural chain unless it says otherwise.
UniProt Q9NUP7: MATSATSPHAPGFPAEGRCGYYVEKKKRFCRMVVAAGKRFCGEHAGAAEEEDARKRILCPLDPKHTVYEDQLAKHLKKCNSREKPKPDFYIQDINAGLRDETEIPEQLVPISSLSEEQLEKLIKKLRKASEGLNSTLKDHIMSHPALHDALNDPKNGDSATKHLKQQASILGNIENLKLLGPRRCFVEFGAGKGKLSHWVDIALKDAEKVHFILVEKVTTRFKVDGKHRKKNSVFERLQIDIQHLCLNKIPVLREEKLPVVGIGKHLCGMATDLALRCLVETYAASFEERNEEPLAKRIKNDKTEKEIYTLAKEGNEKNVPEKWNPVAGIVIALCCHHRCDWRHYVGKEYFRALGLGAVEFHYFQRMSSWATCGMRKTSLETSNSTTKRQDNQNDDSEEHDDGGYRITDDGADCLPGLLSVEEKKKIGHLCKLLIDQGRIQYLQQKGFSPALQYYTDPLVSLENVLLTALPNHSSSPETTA
UniProt Q6DKK2: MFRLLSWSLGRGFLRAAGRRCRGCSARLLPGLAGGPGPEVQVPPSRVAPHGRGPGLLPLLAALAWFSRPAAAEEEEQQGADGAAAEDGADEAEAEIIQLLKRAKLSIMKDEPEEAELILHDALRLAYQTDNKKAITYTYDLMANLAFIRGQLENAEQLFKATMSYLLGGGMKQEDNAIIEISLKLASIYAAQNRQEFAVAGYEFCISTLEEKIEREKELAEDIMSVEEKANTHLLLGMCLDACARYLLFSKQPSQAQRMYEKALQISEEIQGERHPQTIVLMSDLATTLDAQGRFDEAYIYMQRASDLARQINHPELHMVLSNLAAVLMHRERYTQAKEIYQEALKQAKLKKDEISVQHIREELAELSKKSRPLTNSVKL
UniProt Q13428: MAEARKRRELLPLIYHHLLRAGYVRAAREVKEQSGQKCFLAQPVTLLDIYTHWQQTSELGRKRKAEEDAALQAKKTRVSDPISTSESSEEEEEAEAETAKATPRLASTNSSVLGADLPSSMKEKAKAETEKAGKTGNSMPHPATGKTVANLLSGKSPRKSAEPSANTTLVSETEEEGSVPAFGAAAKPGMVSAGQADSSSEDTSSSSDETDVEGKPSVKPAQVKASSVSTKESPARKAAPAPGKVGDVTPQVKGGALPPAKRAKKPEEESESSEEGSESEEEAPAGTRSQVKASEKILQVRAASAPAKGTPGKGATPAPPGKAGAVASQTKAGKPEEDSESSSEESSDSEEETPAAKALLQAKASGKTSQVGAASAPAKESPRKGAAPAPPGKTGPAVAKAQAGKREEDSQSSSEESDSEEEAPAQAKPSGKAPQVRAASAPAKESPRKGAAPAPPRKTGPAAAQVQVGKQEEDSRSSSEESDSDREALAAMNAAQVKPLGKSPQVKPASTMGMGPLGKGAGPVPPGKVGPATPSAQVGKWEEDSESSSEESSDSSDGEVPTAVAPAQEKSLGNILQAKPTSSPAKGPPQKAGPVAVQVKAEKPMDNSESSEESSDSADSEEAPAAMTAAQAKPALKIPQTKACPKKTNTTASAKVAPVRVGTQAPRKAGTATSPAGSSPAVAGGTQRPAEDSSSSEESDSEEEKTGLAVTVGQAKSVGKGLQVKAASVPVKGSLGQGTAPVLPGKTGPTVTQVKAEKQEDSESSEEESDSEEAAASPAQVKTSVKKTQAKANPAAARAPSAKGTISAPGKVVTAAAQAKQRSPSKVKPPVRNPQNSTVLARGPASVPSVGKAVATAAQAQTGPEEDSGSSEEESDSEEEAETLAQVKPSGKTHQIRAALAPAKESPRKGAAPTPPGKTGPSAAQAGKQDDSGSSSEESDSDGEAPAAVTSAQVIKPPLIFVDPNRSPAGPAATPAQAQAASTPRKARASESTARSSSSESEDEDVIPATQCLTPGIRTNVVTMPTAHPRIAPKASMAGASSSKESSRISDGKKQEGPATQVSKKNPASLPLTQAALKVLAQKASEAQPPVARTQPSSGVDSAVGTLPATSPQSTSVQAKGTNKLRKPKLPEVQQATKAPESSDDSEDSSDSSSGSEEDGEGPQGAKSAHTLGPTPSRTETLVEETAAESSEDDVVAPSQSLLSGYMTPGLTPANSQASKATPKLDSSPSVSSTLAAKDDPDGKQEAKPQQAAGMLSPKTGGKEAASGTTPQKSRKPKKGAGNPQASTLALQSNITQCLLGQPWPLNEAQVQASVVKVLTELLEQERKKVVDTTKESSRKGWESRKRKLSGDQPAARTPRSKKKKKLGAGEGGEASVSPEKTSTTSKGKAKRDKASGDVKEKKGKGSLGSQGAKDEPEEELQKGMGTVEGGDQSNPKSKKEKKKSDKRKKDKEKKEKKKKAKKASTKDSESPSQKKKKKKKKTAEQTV
UniProt Q9H3S4: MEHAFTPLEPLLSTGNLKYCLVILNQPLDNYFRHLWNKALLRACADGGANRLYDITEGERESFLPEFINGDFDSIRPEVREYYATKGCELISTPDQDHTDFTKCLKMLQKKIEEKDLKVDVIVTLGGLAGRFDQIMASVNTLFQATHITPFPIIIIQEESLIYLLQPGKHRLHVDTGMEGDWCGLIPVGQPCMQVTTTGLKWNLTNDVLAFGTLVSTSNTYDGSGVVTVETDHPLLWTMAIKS
UniProt P37802: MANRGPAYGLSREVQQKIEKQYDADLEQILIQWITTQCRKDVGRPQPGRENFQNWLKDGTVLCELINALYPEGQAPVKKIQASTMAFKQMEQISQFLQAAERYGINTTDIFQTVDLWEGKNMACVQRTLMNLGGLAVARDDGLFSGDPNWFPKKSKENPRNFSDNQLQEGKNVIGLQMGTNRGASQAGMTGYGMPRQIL
UniProt Q96J01: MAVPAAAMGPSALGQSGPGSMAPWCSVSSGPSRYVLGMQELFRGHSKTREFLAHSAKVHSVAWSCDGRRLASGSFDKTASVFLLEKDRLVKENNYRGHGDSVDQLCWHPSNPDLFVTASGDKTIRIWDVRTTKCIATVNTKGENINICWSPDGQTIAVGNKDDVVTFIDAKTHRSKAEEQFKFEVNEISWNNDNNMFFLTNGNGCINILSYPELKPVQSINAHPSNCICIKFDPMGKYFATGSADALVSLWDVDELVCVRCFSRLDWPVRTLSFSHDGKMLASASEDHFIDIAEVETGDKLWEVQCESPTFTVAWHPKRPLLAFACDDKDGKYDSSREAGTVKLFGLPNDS
UniProt Q86SZ2: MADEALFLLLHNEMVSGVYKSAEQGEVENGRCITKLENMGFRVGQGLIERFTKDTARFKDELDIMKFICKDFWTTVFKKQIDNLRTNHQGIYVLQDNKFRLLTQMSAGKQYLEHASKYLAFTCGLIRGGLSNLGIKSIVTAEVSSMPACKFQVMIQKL
UniProt Q9UNY4: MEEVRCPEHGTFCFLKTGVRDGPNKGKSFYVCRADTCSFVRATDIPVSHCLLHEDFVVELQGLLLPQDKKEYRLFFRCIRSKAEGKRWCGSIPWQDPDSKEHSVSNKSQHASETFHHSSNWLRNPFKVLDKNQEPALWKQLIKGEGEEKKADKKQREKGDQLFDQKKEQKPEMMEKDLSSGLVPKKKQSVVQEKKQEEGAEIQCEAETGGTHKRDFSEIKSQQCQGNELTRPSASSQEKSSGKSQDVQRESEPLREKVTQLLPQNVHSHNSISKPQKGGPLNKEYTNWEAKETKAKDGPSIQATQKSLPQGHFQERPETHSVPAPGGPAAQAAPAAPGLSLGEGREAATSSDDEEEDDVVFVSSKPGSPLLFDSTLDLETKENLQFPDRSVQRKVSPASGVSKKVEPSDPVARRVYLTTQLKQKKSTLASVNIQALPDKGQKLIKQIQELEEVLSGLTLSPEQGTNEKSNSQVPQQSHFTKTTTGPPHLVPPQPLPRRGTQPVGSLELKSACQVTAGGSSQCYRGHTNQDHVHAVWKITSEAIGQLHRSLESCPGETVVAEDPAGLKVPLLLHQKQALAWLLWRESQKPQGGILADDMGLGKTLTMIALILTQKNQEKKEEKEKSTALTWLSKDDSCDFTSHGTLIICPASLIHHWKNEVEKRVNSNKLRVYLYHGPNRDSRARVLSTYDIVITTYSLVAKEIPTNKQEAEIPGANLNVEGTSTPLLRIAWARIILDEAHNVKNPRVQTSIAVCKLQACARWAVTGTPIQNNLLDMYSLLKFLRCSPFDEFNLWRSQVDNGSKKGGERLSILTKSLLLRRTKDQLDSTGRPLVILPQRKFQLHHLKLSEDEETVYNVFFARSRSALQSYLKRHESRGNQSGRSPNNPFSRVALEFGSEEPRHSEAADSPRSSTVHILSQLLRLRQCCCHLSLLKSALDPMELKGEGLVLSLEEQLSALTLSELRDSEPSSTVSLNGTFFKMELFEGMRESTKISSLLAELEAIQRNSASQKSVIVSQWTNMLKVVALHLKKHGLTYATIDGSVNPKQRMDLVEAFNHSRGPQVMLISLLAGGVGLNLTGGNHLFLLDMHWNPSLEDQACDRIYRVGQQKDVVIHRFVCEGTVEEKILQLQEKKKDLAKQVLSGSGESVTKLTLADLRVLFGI
UniProt Q9UL33, whole entry: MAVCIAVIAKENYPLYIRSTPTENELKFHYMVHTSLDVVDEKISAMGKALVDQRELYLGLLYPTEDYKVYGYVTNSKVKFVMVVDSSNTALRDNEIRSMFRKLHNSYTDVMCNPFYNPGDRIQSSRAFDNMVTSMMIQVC
UniProt Q15633: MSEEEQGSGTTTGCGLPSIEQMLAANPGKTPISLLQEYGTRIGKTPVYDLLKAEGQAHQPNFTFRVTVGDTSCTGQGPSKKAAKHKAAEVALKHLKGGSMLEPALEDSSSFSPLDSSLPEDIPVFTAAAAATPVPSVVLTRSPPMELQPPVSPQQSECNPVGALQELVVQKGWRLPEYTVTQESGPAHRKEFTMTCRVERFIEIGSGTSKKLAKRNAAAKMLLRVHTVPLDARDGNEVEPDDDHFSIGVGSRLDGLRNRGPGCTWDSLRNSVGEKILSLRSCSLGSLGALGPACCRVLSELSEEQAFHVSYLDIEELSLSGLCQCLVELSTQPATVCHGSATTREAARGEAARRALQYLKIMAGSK
UniProt Q9UPU7: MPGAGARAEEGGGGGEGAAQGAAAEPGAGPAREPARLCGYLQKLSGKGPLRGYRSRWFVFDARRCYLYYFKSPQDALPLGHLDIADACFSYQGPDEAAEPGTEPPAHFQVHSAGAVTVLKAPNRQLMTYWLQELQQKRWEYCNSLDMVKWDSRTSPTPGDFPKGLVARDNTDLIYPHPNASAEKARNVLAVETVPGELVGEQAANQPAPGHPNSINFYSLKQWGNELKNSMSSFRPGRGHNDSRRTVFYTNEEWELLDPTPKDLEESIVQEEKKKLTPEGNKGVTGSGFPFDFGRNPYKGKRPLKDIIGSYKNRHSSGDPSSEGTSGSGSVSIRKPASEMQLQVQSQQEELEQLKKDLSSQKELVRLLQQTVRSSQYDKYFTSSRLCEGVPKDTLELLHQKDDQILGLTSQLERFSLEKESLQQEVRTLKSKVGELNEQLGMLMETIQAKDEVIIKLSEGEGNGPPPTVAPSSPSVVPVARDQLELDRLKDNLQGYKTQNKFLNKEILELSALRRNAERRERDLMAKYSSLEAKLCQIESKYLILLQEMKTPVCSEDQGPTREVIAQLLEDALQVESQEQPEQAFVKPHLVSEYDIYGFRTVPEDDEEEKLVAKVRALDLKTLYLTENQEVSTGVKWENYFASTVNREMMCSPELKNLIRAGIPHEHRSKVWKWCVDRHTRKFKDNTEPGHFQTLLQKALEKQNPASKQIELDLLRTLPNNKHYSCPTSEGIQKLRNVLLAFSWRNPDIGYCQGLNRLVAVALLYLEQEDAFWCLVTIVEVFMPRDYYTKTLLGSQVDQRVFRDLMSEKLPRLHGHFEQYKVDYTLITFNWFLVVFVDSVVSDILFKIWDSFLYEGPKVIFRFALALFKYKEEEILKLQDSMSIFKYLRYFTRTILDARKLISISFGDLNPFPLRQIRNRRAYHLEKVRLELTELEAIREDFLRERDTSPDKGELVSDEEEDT
UniProt O95881: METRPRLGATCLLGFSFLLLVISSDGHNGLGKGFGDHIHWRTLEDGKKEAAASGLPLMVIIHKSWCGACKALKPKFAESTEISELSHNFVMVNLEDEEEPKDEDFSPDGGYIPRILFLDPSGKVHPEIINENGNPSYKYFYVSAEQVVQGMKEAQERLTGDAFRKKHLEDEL
UniProt Q8NBS9: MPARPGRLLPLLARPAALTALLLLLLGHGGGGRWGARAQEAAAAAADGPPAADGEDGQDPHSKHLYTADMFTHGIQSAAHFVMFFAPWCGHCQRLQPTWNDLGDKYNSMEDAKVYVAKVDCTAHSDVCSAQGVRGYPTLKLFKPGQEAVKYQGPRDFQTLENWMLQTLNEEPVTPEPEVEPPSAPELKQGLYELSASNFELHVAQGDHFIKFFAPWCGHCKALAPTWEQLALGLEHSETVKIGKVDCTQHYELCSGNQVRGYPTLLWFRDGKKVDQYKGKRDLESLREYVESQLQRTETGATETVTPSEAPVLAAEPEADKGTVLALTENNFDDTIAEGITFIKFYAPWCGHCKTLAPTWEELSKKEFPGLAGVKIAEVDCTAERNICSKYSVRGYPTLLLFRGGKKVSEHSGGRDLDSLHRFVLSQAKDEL

Row | Target | dose-dependent thermal stabilisation call
1 | TRMT13 (UniProt Q9NUP7) | active: 1
2 | TLE3 (UniProt Q04726) | inactive: 0
3 | TTC19 (UniProt Q6DKK2) | inactive: 0
4 | TRAPPC9 (UniProt Q96Q05) | active: 1
5 | TERF2IP (UniProt Q9NYB0) | inactive: 0
6 | TCOF1 (UniProt Q13428) | inactive: 0
7 | TRAPPC12 (UniProt Q8WVT3) | inactive: 0
8 | TPK1 (UniProt Q9H3S4) | inactive: 0
9 | TCP1 (UniProt P17987) | inactive: 0
10 | TWISTNB (UniProt Q3B726) | inactive: 0
11 | TAGLN2 (UniProt P37802) | inactive: 0
12 | THOC3 (UniProt Q96J01) | inactive: 0
13 | TRAPPC6B (UniProt Q86SZ2) | inactive: 0
14 | TRIM65 (UniProt Q6PJ69) | active: 1
15 | TECPR2 (UniProt O15040) | inactive: 0
16 | TRIM33 (UniProt Q9UPN9) | inactive: 0
17 | TTF2 (UniProt Q9UNY4) | inactive: 0
18 | TMLHE (UniProt Q9NVH6) | inactive: 0

Pulled one by one from the list above, two records:
Row | Target | dose-dependent thermal stabilisation call
10 | TWISTNB (UniProt Q3B726) | inactive: 0
1 | TRMT13 (UniProt Q9NUP7) | active: 1

Carrying on.

Row | Target | dose-dependent thermal stabilisation call
19 | TRAP1 (UniProt Q12931) | inactive: 0
20 | TRAPPC2L (UniProt Q9UL33) | inactive: 0
21 | TARBP2 (UniProt Q15633) | inactive: 0
22 | TOP2A (UniProt P11388) | inactive: 0
23 | THRAP3 (UniProt Q9Y2W1) | active: 1
24 | TLDC1 (UniProt Q6P9B6) | inactive: 0
25 | TBC1D2B (UniProt Q9UPU7) | active: 1
26 | TXNDC12 (UniProt O95881) | inactive: 0
27 | TXNDC5 (UniProt Q8NBS9) | inactive: 0
28 | TSC1 (UniProt Q92574) | inactive: 0
29 | TKFC (UniProt Q3LXA3) | inactive: 0
30 | THOC5 (UniProt Q13769) | active: 1
31 | TRNT1 (UniProt Q96Q11) | active: 1
32 | UBAP1 (UniProt Q9NZ09) | inactive: 0
33 | TRIP11 (UniProt Q15643) | inactive: 0
34 | TOX (UniProt O94900) | inactive: 0
35 | TXNRD2 (UniProt Q9NNW7) | inactive: 0
36 | TOP1 (UniProt P11387) | active: 1
